Consider one compound from patent US7964629B2, “Inhibitors of isoprenylcysteine carboxyl methyltransferase” (Duke Universtiy, priority 2005, dated 2011).

Amino acid sequences for entries named in this document (tags omitted).
UniProt O60725, whole entry: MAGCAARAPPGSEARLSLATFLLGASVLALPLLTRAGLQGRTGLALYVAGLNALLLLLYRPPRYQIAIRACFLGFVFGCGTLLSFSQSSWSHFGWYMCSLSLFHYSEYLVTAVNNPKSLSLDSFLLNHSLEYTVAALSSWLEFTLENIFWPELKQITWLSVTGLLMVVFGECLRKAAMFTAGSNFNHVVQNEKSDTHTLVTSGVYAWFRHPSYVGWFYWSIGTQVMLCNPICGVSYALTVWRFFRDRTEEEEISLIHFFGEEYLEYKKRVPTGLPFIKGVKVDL

For the experiment, the target named is recombinant human Icmt (Homo sapiens, UniProt O60725). The experiment in a line: Icmt assay: [3H]methyl incorporation from [3H]AdoMet into BFC. The class given is biochemical.

pIC50: −log10 of the molar value. Read-outs that look alike come from different tables or passages of the source. The structures given here were assigned with low confidence; some may be wrong. Bounds are passed on as bounds.

As usually defined, the pIC50 is the negative decadic logarithm of the IC50, by convention in mol/L. Take `CCCCCCCCn1cc(CC(N)=O)c2cc(-c3cccc(C)c3)ccc21` [cysmethynil, 2-[5-(3-methylphenyl)-1-octyl-1H-indol-3-yl]acetamide]: the pIC50 (Table 2, no pre-incubation) was 5.52 and the pIC50 (read-out: IC50 pre-inc, Table 2, pre-incubation of enzyme with inhibitor) was > 6.52.
